Results are given in words; binding and its absence hold for the method and conditions named. Some entries that bind do so weakly or less than the wild type. For some of these results: Where a sequence is shown, tags or fusion partners need not be part of it.
Legend:
[1] = biological target: T1, colicin E2 immunity protein (ImmE2) carrying a C-terminal His6 tag (E. coli) (UniProt P04482); test: co-purification by affinity chromatography; colicin co-expressed with its immunity protein carrying a C-terminal His6 tag in BL21(DE3); complex purified by affinity chromatography through the tag (Ni-NTA)
T1 sequence: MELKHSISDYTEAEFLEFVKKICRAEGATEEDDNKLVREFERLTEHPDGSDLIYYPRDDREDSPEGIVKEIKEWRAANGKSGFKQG

The chains behind the UniProt entries cited, without tags or fusion partners. Where a name states a change or a piece, a line headed by the entry shows the natural chain unless it says otherwise.
UniProt Q03708: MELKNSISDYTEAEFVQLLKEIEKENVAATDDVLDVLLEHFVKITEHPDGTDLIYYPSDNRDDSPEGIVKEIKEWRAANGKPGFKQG
UniProt P04419: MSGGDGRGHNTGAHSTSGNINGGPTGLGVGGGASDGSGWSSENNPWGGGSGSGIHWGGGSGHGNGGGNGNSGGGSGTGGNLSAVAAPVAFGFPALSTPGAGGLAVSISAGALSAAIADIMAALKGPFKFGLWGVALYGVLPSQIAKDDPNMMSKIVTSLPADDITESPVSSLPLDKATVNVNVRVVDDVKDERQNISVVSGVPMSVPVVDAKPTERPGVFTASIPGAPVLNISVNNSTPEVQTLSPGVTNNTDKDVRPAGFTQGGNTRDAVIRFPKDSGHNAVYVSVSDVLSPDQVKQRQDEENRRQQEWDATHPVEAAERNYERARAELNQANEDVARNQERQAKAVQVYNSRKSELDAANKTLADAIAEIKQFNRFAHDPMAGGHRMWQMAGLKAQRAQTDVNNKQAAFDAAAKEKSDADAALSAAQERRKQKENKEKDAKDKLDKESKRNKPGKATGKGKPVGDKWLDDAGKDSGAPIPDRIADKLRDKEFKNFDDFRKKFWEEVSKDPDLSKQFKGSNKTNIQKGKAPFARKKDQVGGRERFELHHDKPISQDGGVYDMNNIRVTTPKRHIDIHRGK
UniProt Q47112: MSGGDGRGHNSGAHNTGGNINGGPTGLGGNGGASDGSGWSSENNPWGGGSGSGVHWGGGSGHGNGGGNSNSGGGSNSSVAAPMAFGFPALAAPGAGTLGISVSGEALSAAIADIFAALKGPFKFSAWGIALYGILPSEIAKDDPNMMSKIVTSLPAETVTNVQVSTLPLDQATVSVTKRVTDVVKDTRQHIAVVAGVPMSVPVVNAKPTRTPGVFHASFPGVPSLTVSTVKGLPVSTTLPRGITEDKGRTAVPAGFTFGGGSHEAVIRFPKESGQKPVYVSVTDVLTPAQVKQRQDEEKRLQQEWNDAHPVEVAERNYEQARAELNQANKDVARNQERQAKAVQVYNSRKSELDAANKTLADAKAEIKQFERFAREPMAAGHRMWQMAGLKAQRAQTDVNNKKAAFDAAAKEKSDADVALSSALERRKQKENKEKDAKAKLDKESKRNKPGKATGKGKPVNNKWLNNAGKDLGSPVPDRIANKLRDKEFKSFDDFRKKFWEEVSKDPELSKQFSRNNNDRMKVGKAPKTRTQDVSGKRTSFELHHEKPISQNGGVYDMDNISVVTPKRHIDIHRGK
UniProt P00646: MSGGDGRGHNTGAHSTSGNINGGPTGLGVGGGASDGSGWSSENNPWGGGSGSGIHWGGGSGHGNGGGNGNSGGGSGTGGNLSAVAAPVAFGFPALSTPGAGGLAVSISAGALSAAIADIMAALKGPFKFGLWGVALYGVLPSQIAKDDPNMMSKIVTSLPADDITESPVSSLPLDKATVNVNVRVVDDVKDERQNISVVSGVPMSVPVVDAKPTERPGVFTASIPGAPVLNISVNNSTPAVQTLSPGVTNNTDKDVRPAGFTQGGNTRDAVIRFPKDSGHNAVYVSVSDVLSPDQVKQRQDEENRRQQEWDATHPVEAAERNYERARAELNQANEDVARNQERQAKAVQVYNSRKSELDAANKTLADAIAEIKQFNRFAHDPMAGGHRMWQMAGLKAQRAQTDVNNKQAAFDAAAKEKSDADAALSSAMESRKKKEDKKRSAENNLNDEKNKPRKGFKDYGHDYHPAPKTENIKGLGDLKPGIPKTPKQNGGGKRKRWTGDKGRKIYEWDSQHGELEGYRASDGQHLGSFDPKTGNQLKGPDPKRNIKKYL

[2] = biological target: colicin E7 immunity protein ImmE7(Ct-His6) (E. coli) (UniProt Q03708); test: as above
[3] = biological target: T2, outer-membrane receptor BtuB (E. coli (endogenous in E. coli K12 strains)) (UniProt P06129); test: association with cells (proteinase K protection, membrane fractionation, Western blot); 1 mg colicin E-ImmE complex added to 50 ml E. coli culture (OD600 0.4, 37°C, 45 min); cells washed, treated with proteinase K (100 µg/ml, 1 h, 37°C; also 0 or 5 min, or 3- and 9-fold more PK); crude extracts or membrane fractions blotted with anti-colicin antiserum; wild-type and btuB-, tolA-, tolB-, ompFC-, ftsH-, ompT-deficient strains; only the binder purified
T2 sequence: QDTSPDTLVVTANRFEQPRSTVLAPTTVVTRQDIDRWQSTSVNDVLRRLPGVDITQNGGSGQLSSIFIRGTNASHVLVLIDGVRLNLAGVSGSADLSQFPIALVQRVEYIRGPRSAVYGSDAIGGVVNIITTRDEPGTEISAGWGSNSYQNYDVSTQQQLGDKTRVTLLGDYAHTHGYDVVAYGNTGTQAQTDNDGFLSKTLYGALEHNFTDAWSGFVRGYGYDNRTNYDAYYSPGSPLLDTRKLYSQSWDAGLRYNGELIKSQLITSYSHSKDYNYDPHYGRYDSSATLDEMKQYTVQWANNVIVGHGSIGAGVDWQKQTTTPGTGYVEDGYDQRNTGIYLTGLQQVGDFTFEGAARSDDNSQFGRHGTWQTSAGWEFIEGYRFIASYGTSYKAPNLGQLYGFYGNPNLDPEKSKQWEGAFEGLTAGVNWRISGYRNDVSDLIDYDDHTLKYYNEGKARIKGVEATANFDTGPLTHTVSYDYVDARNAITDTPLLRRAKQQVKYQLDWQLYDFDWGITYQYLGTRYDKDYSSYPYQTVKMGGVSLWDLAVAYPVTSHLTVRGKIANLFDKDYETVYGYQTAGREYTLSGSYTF

binding [1] | Substance | also measured
binds | colicin E2 (from UniProt P04419 1-581) | –
– | colicin E7 (from UniProt Q47112 1-576) | binding [2]: binds
binds | hybrid colicin E3/colicin E2 (from UniProt P00646 1-454; P04419 457-581) | –
– | colicin E2-ImmE2 complex (from UniProt P04419 1-581; P04482 1-86) | binding [3]: binds
